The other results are listed elsewhere or left out. Most values lie within the scatter of the assay; repeated measurements hardly agree.
The compounds below were run against HuR (ELAVL1) - TNFalpha ARE RNA complex (UniProt Q15717) (assay: AlphaScreen HuR-RNA complex signal Z-score relative to positive (Bi-TNF, DMSO) controls (Z-score (SD units of positive control)); higher = more complex signal). Conditions: screen stage: primary screen; compound concentration: 25 nM.

The chains behind the UniProt entries cited, without tags or fusion partners.
UniProt Q15717, whole entry: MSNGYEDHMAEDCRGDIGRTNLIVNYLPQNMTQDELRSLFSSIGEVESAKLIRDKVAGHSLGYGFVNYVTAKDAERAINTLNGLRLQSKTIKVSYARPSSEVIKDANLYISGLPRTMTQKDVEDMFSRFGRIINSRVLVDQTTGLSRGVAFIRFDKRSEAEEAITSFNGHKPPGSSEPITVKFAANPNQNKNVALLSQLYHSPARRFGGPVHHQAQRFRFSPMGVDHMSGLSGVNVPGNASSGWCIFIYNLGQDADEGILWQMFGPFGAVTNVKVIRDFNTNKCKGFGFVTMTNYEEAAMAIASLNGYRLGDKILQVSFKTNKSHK

| SMILES | AlphaScreen HuR-RNA complex signal Z-score |
| --- | --- |
| O=C(O)CN1C(=O)c2cccc3cccc(c23)C1=O | 0.0638 |
| FC(F)(F)C(Cl)Br (stereo not drawn) | 2.96 |
| CCCCN(CCCC)CCCOC(=O)c1ccc(N)cc1 | 0.87 |
| CC(=O)O[C@@H]1C[C@H]2C(C)(C)[C@@H](O)CC[C@]2(C)[C@H]2CC[C@@]3(C)[C@H](c4ccoc4)OC(=O)[C@H]4O[C@]43[C@@]21C [beta-DIHYDROGEDUNOL] | 1.36 |
| Cc1ccc(C(=O)c2ccc(CC(=O)O)n2C)cc1 | -1.01 |
| CC(=O)OCC(=O)[C@@]1(O)CC[C@H]2[C@@H]3CCC4=CC(=O)CC[C@]4(C)[C@@]3(F)[C@@H](O)C[C@@]21C | -0.156 |
| CC(=O)O[C@@H]1C[C@H]2C(C)(C)C(=O)CC[C@]2(C)[C@H]2CC[C@@]3(C)[C@H](c4ccoc4)OC(=O)[C@H]4O[C@]43[C@@]21C | 0.705 |
| O=C(O)CCCCCCCC(=O)O | 1.18 |
| CC12CCC3C(CC3(C)C)C(C)(CCC1=O)O2 (stereo not drawn) | 1.97 |
| C=C1CC[C@H](O)C/C1=C/C=C1\CCC[C@]2(C)[C@@H]([C@H](C)CCCC(C)C)CC[C@@H]12 | -0.298 |
| NNCCc1ccccc1 | -5.48 |
| CC(=O)S[C@@H]1CC2=CC(=O)CC[C@]2(C)[C@H]2CC[C@@]3(C)[C@@H](CC[C@@]34CCC(=O)O4)[C@H]12 | 8.41 |
| CCCc1cc(C(N)=S)ccn1 | 1.09 |
| CC(Cc1cccc(C(F)(F)F)c1)NCCOC(=O)c1ccccc1 (stereo not drawn) | 1.89 |
| COc1ccc2c(=O)c(OC)c(-c3ccccc3)oc2c1 | 0.408 |
| CN1CCC(=C2c3ccccc3C=Cc3ccccc32)CC1 | 1.67 |
| COc1ccc(-c2cc(=O)c3ccccc3o2)cc1 | 2.88 |
| N=C(N)NC(=N)NCCc1ccccc1 | 2 |
| CC(C)(CO)[C@@H](O)C(=O)NCCC(=O)NCCSSCCNC(=O)CCNC(=O)[C@H](O)C(C)(C)CO | 0.969 |
| CN1CCN(CC/C=C2/c3ccccc3Sc3ccc(S(=O)(=O)N(C)C)cc32)CC1 | -5.35 |
| CC[C@H](/C=C/[C@@H](C)[C@H]1CC[C@H]2[C@@H]3CC=C4C[C@@H](O)CC[C@]4(C)[C@H]3CC[C@]12C)C(C)C | 1.32 |
| CC(=O)OCC(=O)[C@@]1(O)[C@@H](C)C[C@H]2[C@@H]3CCC4=CC(=O)C=C[C@]4(C)[C@@]3(F)[C@@H](O)C[C@@]21C | 2.76 |
| CC(=O)Oc1ccc2c(c1OC(C)=O)OCC1(O)Cc3c(cc(OC(C)=O)c(OC(C)=O)c3OC(C)=O)C21 (stereo not drawn) | 1 |
| COc1c2occc2cc2ccc(=O)oc12 | 1.38 |

Pulled by compound from above:

| SMILES | AlphaScreen HuR-RNA complex signal Z-score |
| --- | --- |
| C=C1CC[C@H](O)C/C1=C/C=C1\CCC[C@]2(C)[C@@H]([C@H](C)CCCC(C)C)CC[C@@H]12 | -0.298 |
| O=C(O)CN1C(=O)c2cccc3cccc(c23)C1=O | 0.0638 |

(cont.)

| SMILES | AlphaScreen HuR-RNA complex signal Z-score |
| --- | --- |
| N=C(NCCCCCCNC(=N)NC(=N)Nc1ccc(Cl)cc1)NC(=N)Nc1ccc(Cl)cc1 | -3.7 |
| COC(=O)c1cc(O)c(=O)c2c(O)c(O)ccc2c1 | 2.04 |
| C[N+]1(C)CCC(OC(=O)C(O)(c2ccccc2)C2CCCC2)C1 (stereo not drawn) | 1.7 |
| CCCCCCCCCCCCCCCCCCOCC(O)CO (stereo not drawn) | 1.61 |
| CCCCCc1c2c(cc(O)c1C(=O)O)OC(=O)c1c(cc(OC)cc1C(=O)CCCC)O2 | 0.421 |
| COC1=C[C@@H](C)[C@@H]2C[C@H]3OC(=O)C[C@H]4C(C)=C(OC)C(=O)[C@H]([C@@]2(C)C1=O)[C@@]34C | 1.5 |
| COc1ccc([C@@H]2CC(=O)c3c(O)cc(O)cc3O2)cc1O | 1.18 |
| CN(C)CCCN1c2ccccc2Sc2ccc(C(F)(F)F)cc21 | 0.775 |
| Oc1cc(O)c2c(c1)O[C@H](c1ccc(O)c(O)c1)[C@@H](O)C2 | 2.21 |
| CCN(CC)CCOC(=O)C1(C2CCCCC2)CCCCC1 | -2.52 |
| O=c1cc(-c2ccccc2)oc2c(O)c(O)ccc12 | 1.9 |
| O=C1c2c(O)cccc2Cc2cccc(O)c21 | 0.282 |
| O=S(=O)(O)c1cc(N=C=S)ccc1/C=C/c1ccc(N=C=S)cc1S(=O)(=O)O | 1.58 |
| CCCCCCCCCCCCCCCC(=O)OCC(O)CO (stereo not drawn) | 1.46 |
| CC[N+](C)(CC)CCOC(=O)C(O)(c1ccccc1)C1CCCCC1 (stereo not drawn) | 1.59 |
| CC(C)NC[C@@H](O)COc1cccc2ccccc12 | 7.39 |
| CCc1cn([C@H]2C[C@H](O)[C@@H](CO)O2)c(=O)[nH]c1=O | 1.36 |
| C[C@@H]1O[C@@H](O[C@H]2[C@H](Oc3cc(O)c4c(=O)cc(-c5ccc(O)cc5)oc4c3)O[C@H](CO)[C@@H](O)[C@@H]2O)[C@H](O)[C@H](O)[C@H]1O | 2.28 |
| Cc1c(N(C)CS(=O)(=O)O)c(=O)n(-c2ccccc2)n1C | 0.182 |
| CN(C)[C@@H]1C(O)=C(C(=O)NCN2CCCC2)C(=O)[C@@]2(O)C(O)=C3C(=O)c4c(O)cccc4[C@@](C)(O)[C@H]3C[C@@H]12 | 0.484 |
| CC(NCCC(c1ccccc1)c1ccccc1)c1ccccc1 (stereo not drawn) | 1.01 |
| COc1cc2c3cc1Oc1c(OC)c(OC)cc4c1[C@@H](Cc1ccc(O)c(c1)Oc1ccc(cc1)C[C@@H]3N(C)CC2)N(C)CC4 | 0.636 |
| C[C@H](CCC(=O)O)[C@H]1CC[C@H]2[C@@H]3[C@H](O)C[C@@H]4C[C@H](O)CC[C@]4(C)[C@H]3CC[C@]12C | 1.65 |
| NNc1nncc2ccccc12 | -1.81 |

| SMILES | AlphaScreen HuR-RNA complex signal Z-score |
| --- | --- |
| O=C(/C=C/c1ccc(O)c(O)c1)OCCc1ccccc1 | 2.58 |
| NCC(O)CC(=O)O (stereo not drawn) | 3.34 |
| COc1c2occc2c(OC)c2c(=O)cc(C)oc12 | 1.46 |
| C1CNCCN1 | 0.509 |
| Nc1cc(C(Cl)=C(Cl)Cl)c(S(N)(=O)=O)cc1S(N)(=O)=O | -8.09 |
| CC(=O)O[C@H]1CC[C@@]2(C)[C@@H](CC[C@@H]3[C@@H]2CC(=O)[C@]2(C)[C@@H]4[C@H](C[C@@H]32)O[C@]2(CC[C@@H](C)CO2)[C@H]4C)C1 | 1.78 |
| O=c1oc2ccccc2c(O)c1Cc1c(O)c2ccccc2oc1=O | -2.61 |
| COC(=O)/C=C/C(C)=C\C=C\C(C)=C\C=C\C=C(C)\C=C\C=C(C)\C=C\C(=O)O | 0.962 |
| CN1CCN(CCCN2c3ccccc3Sc3ccc(Cl)cc32)CC1 | 2.6 |
| O=C1c2ccccc2C(=O)c2c1ccc(O)c2O | 1.77 |
| CC(=O)Oc1cc(OC(C)=O)c2c(c1)O[C@H](c1ccc(OC(C)=O)c(OC(C)=O)c1)[C@H](OC(C)=O)C2 | 0.105 |
| COc1cc(-c2coc3cc(O[C@@H]4O[C@H](CO)[C@@H](O)[C@H](O)[C@H]4O)c(OC)c(O)c3c2=O)cc(O)c1OC | 2.24 |
| O=c1c(O)c(-c2ccccc2)oc2cc(O)ccc12 | 1.17 |
| O=c1c(O)c(-c2ccc(O)cc2O)oc2cc(O)cc(O)c12 | 0.296 |
| O=C1OCCN1/N=C/c1ccc([N+](=O)[O-])o1 | -2.15 |
| NC(=O)c1ccc([N+](=O)[O-])cc1Cl | 0.745 |
| O=C(/C=C/C(=O)Oc1ccccc1C(=O)O)Oc1ccccc1C(=O)O | 3.89 |
| Cc1c(O)c(=O)ccn1C | 0.985 |
| c1ccc([C@H]2CN3CCSC3=N2)cc1 | 1.47 |
| CCC(=O)O[C@]1(C(=O)CCl)[C@@H](C)C[C@H]2[C@@H]3CCC4=CC(=O)C=C[C@]4(C)[C@@]3(F)[C@@H](O)C[C@@]21C | 1.06 |
| O=C1C[C@@H](c2ccc(O)cc2)Oc2cc(O)cc(O)c21 | 0.644 |
| CC(=O)N[C@@H](Cc1c[nH]c2ccccc12)C(N)=O | -0.112 |
| CC(C)NCC(O)c1ccc2ccccc2c1 (stereo not drawn) | 3.78 |
| CC(=O)O[C@]1(C(C)=O)CC[C@H]2[C@@H]3C[C@H](C)C4=CC(=O)CC[C@]4(C)[C@H]3CC[C@@]21C | 3.31 |

| SMILES | AlphaScreen HuR-RNA complex signal Z-score |
| --- | --- |
| CC(=O)Oc1ccc2c(c1)CCC1C2CC[C@]2(C)C(=O)CCC12 (stereo partly drawn) | -0.663 |
| CN(C)c1nc(N(C)C)nc(N(C)C)n1 | 0.934 |
| NC(=O)C(c1ccccc1)(c1ccccc1)[C@@H]1CCN(CCc2ccc3c(c2)CCO3)C1 | -1.3 |
| CCCNCC(O)COc1ccccc1C(=O)CCc1ccccc1 (stereo not drawn) | 1.04 |
| O=C(Nc1ccccc1)Nc1ccccc1 | 1.74 |
| O=[N+]([O-])c1cccc2cn[nH]c12 | 2.7 |
| COc1ccccc1OCC(O)CN1CCN(CC(=O)Nc2c(C)cccc2C)CC1 (stereo not drawn) | -1.2 |
| COc1cc([C@@H]2c3cc4c(cc3[C@@H](O[C@@H]3O[C@@H]5CO[C@@H](C)O[C@H]5[C@H](O)[C@H]3O)[C@H]3COC(=O)[C@H]23)OCO4)cc(OC)c1O | 0.748 |
| C[C@H]1C[C@@H]2[C@H]([C@@H](O)C[C@@]3(C)[C@H]2CC[C@]3(O)C(=O)CO)[C@@]2(C)C=CC(=O)C=C12 | 4.35 |
| CS(=O)(=O)CCCCN=C=S | 2.77 |
| O=C1CC2(CCCC2)CC(=O)N1CCCCN1CCN(c2ncccn2)CC1 | 6.8 |
| CC[C@H]1OC(=O)[C@H](C)[C@@H](O[C@H]2C[C@@](C)(OC)[C@@H](O)[C@H](C)O2)[C@H](C)[C@@H](O[C@@H]2O[C@H](C)C[C@H](N(C)C)[C@H]2O)[C@](C)(O)C[C@@H](C)[C@@H]2N[C@@H](COCCOC)O[C@H]([C@H]2C)[C@]1(C)O | 1.06 |
| CC(C)/C(O)=C1/C(=O)O[C@@H](c2ccoc2)[C@]2(C)C(O)[C@@H](O)[C@@]34OC5(C)OC67CC(C)(C(O)[C@]6(O)[C@@H](O)[C@]3(O5)C12)[C@H](CC(=O)O)[C@]74C (stereo partly drawn) | 1.8 |
| CC1(C)CC[C@]2(C(=O)O)CC[C@]3(C)C(=CC[C@@H]4[C@@]5(C)CC[C@H](O)[C@@](C)(CO)[C@@H]5CC[C@]43C)[C@@H]2C1 | 1.34 |
| O=c1cc[nH]c(=S)[nH]1 | 0.946 |
| CCC(C(=O)O)c1ccccc1 (stereo not drawn) | 0.804 |
| CCC(=O)c1c(O)cc(O)cc1O | 2.02 |
| CC1Cc2ccccc2N1NC(=O)c1ccc(Cl)c(S(N)(=O)=O)c1 (stereo not drawn) | -0.64 |
| CC(=O)O[C@@H]1CC2C(C)(C)C(=O)C3OC3[C@]2(C)C2CC[C@@]3(C)[C@H](c4ccoc4)OC(=O)C4OC43[C@@]21C (stereo partly drawn) | 1.14 |
| CO/N=C(\C(=O)N[C@@H]1C(=O)N2C(C(=O)O)=C(COC(N)=O)CS[C@H]12)c1ccco1 | 0.48 |
| Nc1ccc(S(=O)(=O)Nc2ccnn2-c2ccccc2)cc1 | 1.42 |

Sorted by count of non-hydrogen atoms (rising): part of the list above.

| SMILES | AlphaScreen HuR-RNA complex signal Z-score |
| --- | --- |
| CS(=O)(=O)CCCCN=C=S | 2.77 |
| CN(C)c1nc(N(C)C)nc(N(C)C)n1 | 0.934 |
| CO/N=C(\C(=O)N[C@@H]1C(=O)N2C(C(=O)O)=C(COC(N)=O)CS[C@H]12)c1ccco1 | 0.48 |

Reference: the supplement of paper PMC3741180, “A Novel High Throughput Biochemical Assay to Evaluate the HuR Protein-RNA Complex Formation” (PLoS ONE, 2013)
